Reference: PMC8464984, “AimR Adopts Preexisting Dimer Conformations for Specific Target Recognition in Lysis-Lysogeny Decisions of Bacillus Phage phi3T” (Biomolecules, 2021)
Where a chain is given by its changes, count along the chain named. Numbers in names are those of the source.

Key:
phAimR = assay: Small-angle X-ray scattering, wild-type phAimR; set-up: species or system Bacillus phage phi3T; settings: 100 μM phAimR with or without 200 μM SAIRGA; 25 mM Tris-HCl pH 8.0, 300 mM NaCl, room temperature
phAimR^Y341A/E371A = assay: Small-angle X-ray scattering, phAimR^Y341A/E371A; set-up: species or system Bacillus phage phi3T; settings: 100 μM phAimR^Y341A/E371A with or without 200 μM SAIRGA; 25 mM Tris-HCl pH 8.0, 300 mM NaCl, room temperature

B1: phAimR: AimR from Phi3T phage (GenBank: KY030782.1), transcription factor and arbitrium peptide receptor (protein)
chain: MIKNECEKDNQLAARLAKLAGYEKVNGFYKFVNTPEKEMENLGGLLKIVKNLFPDSEEQLLSEYFLELDPNKKCARQSVEYSDINQWDTLTDKIIINLCNSKNSTSQEWGKVYSLHRKLNKNEISLNDAIRESGKCKIKSAEMLFFSNAMLMYAYLNIGEFGLMKSTSKLLEFDDLPEGFIKESFKSRVSMLEANISLNENSLLEARQHSNRAIENSNVNRICFFAYLTIGNTLIFEDYDEAKKAYIKGQKYAKNPVHQEMLDGALCFLSNIWKKENQWVNYNSDNIKYLQLRAFYYINQGNIEEATEILDELSSRDQDENELGFYYYYKGLISQDKTDYYKSIRYFKKSDDKYFIQLPLLQLERMGADLELLNLISI
modifications: left off: His6, N-terminal, cleaved
notes: AimR from Phi3T phage (GenBank: KY030782.1), transcription factor and arbitrium peptide receptor
In the case of B1, the “experimental molecular weight (SAXS)” value (phAimR) is reported as 85.7 kDa, the “maximum paired distance (Dmax, SAXS)” value (phAimR) is reported as 117 Å and the “radius of gyration (Rg, SAXS)” value (phAimR) is reported as 33.8 Å.

B2: phAimR^Y341A/E371A: phAimR carrying two amino acids substitutions (protein)
chain: B1 chain with Y341A, E371A
modifications: left off: His6, N-terminal, cleaved
notes: phAimR carrying two amino acids substitutions
B2 was tested, and the “experimental molecular weight (SAXS)” value (phAimR^Y341A/E371A) was 85.6 kDa, the “maximum paired distance (Dmax, SAXS)” value (phAimR^Y341A/E371A) was 116 Å and the “radius of gyration (Rg, SAXS)” value (phAimR^Y341A/E371A) was 33.7 Å.
